Reference: PubChem BioAssay AID1117319 (Southern Research Institute, 2015)
Out of some 260,000 compounds screened, about 1,500 (0.58%) were called active. The inconclusive results got no clear call from the source; some entries with a clear call stand among them for comparison.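 The calls were made as follows: active = inhibition above a set limit at one or more doses, reproduced on every date tested; inconclusive = results disagree between test dates, or hit never tested in dose response; inactive = the rest.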

Chains of the proteins cited; added tags and fusions are not shown. Lines headed by an entry give the natural chain unless they say otherwise; changes in a name come on top.
UniProt P69720: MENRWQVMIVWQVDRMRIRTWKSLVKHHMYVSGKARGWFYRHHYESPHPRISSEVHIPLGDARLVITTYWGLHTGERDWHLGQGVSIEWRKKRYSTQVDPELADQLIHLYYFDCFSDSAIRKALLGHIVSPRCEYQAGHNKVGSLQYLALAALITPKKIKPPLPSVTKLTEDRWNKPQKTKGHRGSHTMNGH
UniProt P69721: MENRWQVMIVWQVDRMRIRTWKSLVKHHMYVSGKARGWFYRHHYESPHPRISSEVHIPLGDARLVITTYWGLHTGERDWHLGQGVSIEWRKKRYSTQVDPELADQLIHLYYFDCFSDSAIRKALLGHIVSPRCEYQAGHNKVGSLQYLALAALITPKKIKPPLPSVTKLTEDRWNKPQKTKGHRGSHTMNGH
UniProt P69722: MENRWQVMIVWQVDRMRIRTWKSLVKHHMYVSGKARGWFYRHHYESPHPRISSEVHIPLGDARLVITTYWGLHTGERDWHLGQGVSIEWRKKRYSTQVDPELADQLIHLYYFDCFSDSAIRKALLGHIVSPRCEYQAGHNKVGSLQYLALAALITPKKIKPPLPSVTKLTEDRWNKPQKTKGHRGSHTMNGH
UniProt P69723: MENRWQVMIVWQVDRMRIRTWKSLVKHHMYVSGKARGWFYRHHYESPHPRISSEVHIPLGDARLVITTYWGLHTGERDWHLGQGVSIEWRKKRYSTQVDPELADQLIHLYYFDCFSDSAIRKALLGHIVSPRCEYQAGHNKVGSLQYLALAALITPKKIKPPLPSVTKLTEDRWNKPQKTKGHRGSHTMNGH
UniProt Q9HC16: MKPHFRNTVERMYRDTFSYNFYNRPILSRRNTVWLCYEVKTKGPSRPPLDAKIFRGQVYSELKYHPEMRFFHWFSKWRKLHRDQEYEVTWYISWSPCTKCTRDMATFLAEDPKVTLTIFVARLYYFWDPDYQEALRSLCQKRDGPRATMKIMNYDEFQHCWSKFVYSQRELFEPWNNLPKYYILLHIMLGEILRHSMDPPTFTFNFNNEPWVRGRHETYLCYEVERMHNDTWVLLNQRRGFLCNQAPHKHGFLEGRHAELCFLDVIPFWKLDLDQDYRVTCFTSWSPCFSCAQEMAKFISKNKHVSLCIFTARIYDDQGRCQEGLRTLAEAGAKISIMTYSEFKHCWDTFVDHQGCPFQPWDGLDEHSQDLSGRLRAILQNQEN

target: Virion infectivity factor (Human immunodeficiency virus type 1 group M subtype B (isolate BH10)) + Virion infectivity factor (Human immunodeficiency virus type 1 group M subtype B (isolate BRU/LAI)) + Virion infectivity factor (Human immunodeficiency virus type 1 group M subtype B (isolate PCV12)) + Virion infectivity factor (Human immunodeficiency virus type 1 group M subtype B (isolate HXB2)) + DNA dC->dU-editing enzyme APOBEC-3G (Homo sapiens) (UniProt P69720+P69721+P69722+P69723+Q9HC16); assay: inhibitors of Vif binding to APOBEC3G peptide, primary screen, biochemical, TR-FRET, GST-Vif 1-94, biotin-A3G peptide, dose response retest (AID 1117319); conditions: active compounds read high;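 also: Vif residues 1-94 fused to GST binding biotinylated APOBEC3G peptide 110-148; 0% = full assay without inhibitor and 100% = GST in place of GST-Vif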

| SMILES | inhibition |
| --- | --- |
| CC1CCN(CC(C)OC(=O)c2ccc3c(c2)OCCO3)CC1 (stereo unspecified) | inconclusive: -1.36% |
| NNC(=O)COc1cccc(Oc2ccccc2)c1 | inconclusive: 48.1% |
| CCOC(=O)c1ccc(-c2c(C)cc3oc(=O)cc(-c4ccccc4)c3c2C)cc1 | inactive: -7.8% |
| CNc1ccc(Oc2nc([N+](=O)[O-])nn2C)cc1 | inconclusive: 59.6% |
| Cc1cc(-n2cc(Br)c(=O)[nH]c2=O)nc(-c2ccccc2)n1 | inconclusive: 36.4% |
| CCCCCCCCOc1ccc(C2OC34CCCCC3C(C#N)(C#N)C2(C#N)C(=N)O4)cc1 (stereo unspecified) | inconclusive: 39.2% |
| CC(C)N(Cc1cc2ccccc2[nH]c1=O)C(=O)C(C)(C)C | inconclusive: 43.4% |
| COc1ccc(-c2cc(C(=O)Nc3ccc(C(N)=O)cc3)c3ccccc3n2)cc1OC | inconclusive: 41.3% |
| Cc1ccc(S(=O)(=O)Cc2ccc(C(=O)N3CCN(Cc4ccccc4)CC3)o2)cc1 | inconclusive: 41.1% |
| Cc1ccc(NC(=O)CCc2ccc(S(=O)(=O)N3CCOCC3)cc2)c(C)c1 | inconclusive: 22.4% |
| CCCCC(=O)Nc1ccccc1C(C)C | inconclusive: 34.1% |
| CS(=O)(=O)c1ccccc1-c1nc(-c2cc(C(F)(F)F)cc(C(F)(F)F)c2)no1 | inconclusive: 33.6% |
| CS(=O)(=O)N1CCCC(C(=O)NCCCN2CCN(Cc3ccccc3)CC2)C1 (stereo unspecified) | inactive: 8.72% |
| c1ccc(Cn2c(-c3ccco3)nc3nc4ccccc4nc32)cc1 | inconclusive: 37.1% |
| CC1(C)CC(=O)C2=C(C1)Nc1ccccc1N1C(=O)c3ccccc3C21 (stereo unspecified) | inconclusive: 39.1% |
| CCOC(=O)c1ccc(NC(=O)c2nccnc2C(=O)O)cc1 | inconclusive: 53.2% |
| CC(O)c1nc2ccccc2n1CCCOc1ccccc1 (stereo unspecified) | inconclusive: 38.6% |
| O=c1cc(O)nc2n1CCCS2 | inconclusive: 55.3% |
| O=C(CC(c1ccccc1)c1ccccc1)Nc1ccncc1 | inconclusive: 44.7% |
| CCCNC(=O)CN(C1CCCCC1)S(C)(=O)=O | inconclusive: 37.1% |
| Cc1ccc(CN(CCO)CCO)cc1 | inconclusive: 52% |
| Cc1ccc(-c2nc3cc(C)ccc3o2)cc1 | inconclusive: 33.9% |
| CC(/C=C/c1ccc(N(C)C)cc1)=N\N=C(/N)SC1CC(=O)N(c2ccc(C(=O)O)cc2)C1=O (stereo unspecified) | inconclusive: 39.8% |

A draw from above in order of molecular weight, low to high:

| SMILES | inhibition |
| --- | --- |
| O=c1cc(O)nc2n1CCCS2 | inconclusive: 55.3% |
| Cc1ccc(-c2nc3cc(C)ccc3o2)cc1 | inconclusive: 33.9% |
| CC(O)c1nc2ccccc2n1CCCOc1ccccc1 (stereo unspecified) | inconclusive: 38.6% |
| CS(=O)(=O)N1CCCC(C(=O)NCCCN2CCN(Cc3ccccc3)CC2)C1 (stereo unspecified) | inactive: 8.72% |
| COc1ccc(-c2cc(C(=O)Nc3ccc(C(N)=O)cc3)c3ccccc3n2)cc1OC | inconclusive: 41.3% |
| CCCCCCCCOc1ccc(C2OC34CCCCC3C(C#N)(C#N)C2(C#N)C(=N)O4)cc1 (stereo unspecified) | inconclusive: 39.2% |
| CC(/C=C/c1ccc(N(C)C)cc1)=N\N=C(/N)SC1CC(=O)N(c2ccc(C(=O)O)cc2)C1=O (stereo unspecified) | inconclusive: 39.8% |

More results follow:

| SMILES | inhibition |
| --- | --- |
| O=C(CSC1=N/C(=C/c2ccco2)C(=O)N1c1ccc(OC(F)F)cc1)NC1CCS(=O)(=O)C1 (stereo unspecified) | inconclusive: 51.1% |
| COc1ccc(-n2ncc3c(NCC(C)C)ncnc32)cc1 | inconclusive: 34.8% |
| CC(=O)Nc1cccc(Oc2ncnc3scc(-c4ccc(C(C)C)cc4)c23)c1 | inconclusive: 39.4% |
| Clc1ccc2c(c1)[C@H]1OCC[C@H]1[C@@H](c1ccco1)N2 | inconclusive: 34.5% |
| O=C(O)[C@H](Cc1ccccc1)NC(=O)C(c1ccccc1)(c1ccccc1)c1ccccc1 | inconclusive: 39.5% |
| CC1CCC(NC(=O)CN2CCC(n3nnc4cc(F)ccc43)CC2)CC1 (stereo unspecified) | inconclusive: 56.6% |
| Cc1cc(N=Nc2ccccc2C(=O)O)c(C)c(C)c1O | inconclusive: 54.4% |
| CCS(=O)(=O)c1ccc(O)c(NC(=O)CCCC(=O)O)c1 | inconclusive: 41.1% |
| CCC(=O)N1C(C(=O)O)CSC1c1ccc(OC)cc1 (stereo unspecified) | inconclusive: 62.3% |
| COc1cc(C(=O)NCc2ccco2)cc(OC)c1OC | inactive: -2.63% |
| CC(C)N1CCC(N2CCN(Cc3ccc4nonc4c3)CC2CCO)CC1 (stereo unspecified) | inconclusive: 35% |
| CCOc1ccc(NC(=S)NC(=O)c2c(Br)cnn2C)c([N+](=O)[O-])c1 | inconclusive: 63.3% |
| Cc1c(C#N)c(=O)c(-[n+]2ccccc2)c([S-])n1-c1ccc(Cl)cc1 | inconclusive: 37.3% |
| Cc1coc2c(O)cc3c(c12)OC1(N2CCCCC2)C(=O)NCCCC31 (stereo unspecified) | inconclusive: 63.5% |
| Cc1cc(C(=O)COC(=O)CCc2nc3ccccc3s2)c(C)n1C | inconclusive: 39.1% |
| COC(Cc1nnc(SC)n1-c1ccccc1)OC | inactive: 6.71% |
| CCN1CCN(C(c2cccs2)C(C)NC(=O)C(C)C)CC1 (stereo unspecified) | inconclusive: 38.8% |
| COc1ccc(Cl)cc1NC(=O)CCS(=O)(=O)c1ccc(C)cc1 | inactive: 0.29% |
| CC(=O)c1c(C)oc2c1C(=O)c1ccccc1C2=O | inconclusive: 48.5% |
| O=C(CN1/C(=C(/O)c2ccccc2)C(=O)c2ccccc2S1(=O)=O)c1ccccc1 | inactive: -0.58% |
| N#Cc1cc2c([nH]c1=S)CCCC2 | inconclusive: 49.4% |
| CSC(=Nc1ccccc1)C1=C(O)COC1=O | inconclusive: 34% |
| C=CCOc1c(Cl)cc(CNc2ccc(N(C)C)cc2)cc1OC | inconclusive: 35% |

| SMILES | inhibition |
| --- | --- |
| COc1ccc(CN(C(=O)c2cc(=O)c3cc(C)cc(C)c3o2)C2CCS(=O)(=O)C2)cc1 (stereo unspecified) | inconclusive: 64% |
| Cc1cccc(N/N=C/c2ccccc2O)c1 | inactive: 0.12% |
| Cc1cc(-c2c(C)[nH]n(-c3ccc(Cl)cc3)c2=O)n[nH]1 | inconclusive: 39.6% |
| Cc1ccc(C(c2nnnn2C(C)(C)C)N(Cc2ccco2)Cc2cccs2)cc1 (stereo unspecified) | inconclusive: 48.8% |
| Cn1c(NC(=O)C2CC2)cc(=O)n(C)c1=O | inconclusive: 56% |
| Cc1nc2c(C(=O)NCc3ccc(F)cc3)c[nH]n2c(=O)c1Cl | inconclusive: 60.1% |
| CCN(CC)c1ccc(/C=N/Nc2nc(C)cc(=O)[nH]2)cc1 | inconclusive: 49.9% |
| CCOC(=O)C1=C(C)NC(SCC(N)=O)=C(C#N)C1c1cccs1 (stereo unspecified) | inactive: -2.81% |
| CCOC(=O)c1c(-c2ccc(C)cc2)cn2ccccc12 | inconclusive: 32.3% |
| CCc1ccc2nc(SCC(=O)N(CC)CC)c(C#N)cc2c1 | inconclusive: 35.9% |
| O=C(Nc1ccccc1)N1C(=O)C2(OCCO2)c2ccccc21 | inconclusive: 55.2% |
| S=c1[nH]nc(-c2cc(-c3ccco3)[nH]n2)n1-c1cccc2ccccc12 | inactive: 16.8% |
| Cc1nn(-c2ccccc2)c2sc(C(=O)NNC(=O)COc3ccccc3)cc12 | inconclusive: 41.3% |
| Cc1cc(C)cc(CC2CC(=O)N(c3cc(C)on3)C2=O)c1 (stereo unspecified) | inconclusive: 45.4% |
| Cc1ccc(Cn2c(=N)n(CC(O)COc3ccccc3)c3ccccc32)cc1 (stereo unspecified) | inconclusive: 49.7% |
| Cc1ccc(OCC(=O)N/N=C/C=C/c2ccco2)cc1C | inconclusive: 51.1% |
| CCOC(=O)C1=C(C(C)=O)C(c2cccnc2)C(C#N)=C(N)O1 (stereo unspecified) | inconclusive: 60.1% |
| CCOc1cc(C(=O)NC(C)c2ccncc2)cc(OCC)c1OCC (stereo unspecified) | inconclusive: 40.3% |
| S=C(NNC(=S)NC1CC2C=CC1C2)NC1CC2C=CC1C2 (stereo unspecified) | inconclusive: 60.1% |
| c1coc(C2=Nc3cccc4cccc(c34)N2)c1 | inactive: 8.06% |
| Nc1cc(C(=O)O)ccc1Nc1ccccc1 | inactive: 13% |
| COCCn1nnnc1SCC(=O)c1ccc(F)cc1 | inconclusive: 47.8% |
| CCNc1nc(NCC)n2c(SCC(=O)O)nnc2n1 | inconclusive: 40.6% |

| SMILES | inhibition |
| --- | --- |
| CCCCn1c(-c2cccnc2)n[nH]c1=S | inconclusive: 43% |
| Cc1cc(C)nc(N/N=C/c2ccccc2OCc2ccc(Br)cc2)n1 | inconclusive: 45.5% |
| O=C(/C=C/c1ccccc1Cl)Nc1ccccc1 | inactive: -7.35% |
| Cn1c(=O)n(C)c2cc([N+](=O)[O-])c(N3CCN(S(=O)(=O)c4ccccc4)CC3)cc21 | inconclusive: 38.1% |
| COc1cc(-c2cc3nc4ccccc4n3c(N)c2C#N)cc(OC)c1OC | inconclusive: 57.5% |
| COC(=O)CC1C(=O)NCCN1C(=O)Nc1ccccc1 (stereo unspecified) | inconclusive: 21.3% |
| Cc1onc(-c2c(F)cccc2Cl)c1C(=O)NC(=S)NC1CCS(=O)(=O)C1 (stereo unspecified) | inconclusive: 36.8% |
| Cc1ccc(S(=O)(=O)N(CC(=O)N(C(C)C)C(C)C)C(=O)N2CCN(C)CC2)cc1 | inconclusive: 36.6% |
| O=C(CSc1ccc2c(c1)OCCO2)NCCc1ccc(Cl)cc1Cl | inconclusive: 34.8% |
| CCOC(=O)c1cc(C#N)c(N2CCN(C(=O)c3cccc(C(F)(F)F)c3)CC2)nc1C(F)(F)F | inconclusive: 54.4% |
| O=C(NC(=S)Nc1cc(Cl)ccc1N1CCOCC1)c1ccc(-c2cccc(Cl)c2)o1 | inconclusive: 45.3% |
| CCCCNc1oc(-c2cccs2)nc1S(=O)(=O)c1ccccc1 | inactive: -0.64% |
| CC(CC(=O)O)CC(=O)Nc1ccccc1C(=O)O (stereo unspecified) | inconclusive: 58% |
| O=C(O)CSc1nnc(-c2ccc(S(=O)(=O)N3CCCC3)cc2)n1Cc1ccco1 | inconclusive: 41.3% |
| Cc1c(C(=O)Nc2cccc(Cl)c2)c2ccccn2c1CCc1ccncc1 | inconclusive: 42.4% |
| Cc1cccc(-n2c(=O)[nH]c3c(C(N)=O)nc(CC(C)C)nc32)c1 | inconclusive: 48.5% |
| CCc1ccc(OCC(=O)N/N=C/c2cc([N+](=O)[O-])ccc2N2CCCCCC2)cc1 | inconclusive: 44.2% |
| OCCC1CN(Cc2ccc3nsnc3c2)CCN1C1CCCC1 (stereo unspecified) | inconclusive: 36.1% |
| CN(C)C(=S)SCC(=O)NC(=O)NC(C)(C)C | inconclusive: 33.4% |
| CC(C)N1CCC(N2CCN(C3CCCCCC3)CC2CCO)CC1 (stereo unspecified) | inconclusive: 43.8% |
| COc1ccc(C2C(C#N)=C(N)Oc3cc(O)ccc32)cc1OC (stereo unspecified) | inconclusive: 40.5% |
| O=S(=O)(c1ccccc1)N1N=C(c2ccc(Cl)cc2)CC1c1ccco1 (stereo unspecified) | inactive: 4.42% |
